From US20260232692A1, “Methods Of Treating Cancer Using BCL-2 Inhibitors With Iron And Heme Supplementation Therapies” (Emory University, priority 2023, published 2026)
At least one structure is not confirmed: it was looked up by name or label, or the drawing left a doubt.

How the values were obtained:
[1] = test system: venetoclax sensitive (VS) multiple myeloma (MM) cell lines; experiment: Hemin/5-ALA supplementation and Ven sensitivity in VS MM cell lines, Annexin V/DAPI flow cytometry; type: cell-based; conditions: 50 μM Hemin/5-ALA pre-treatment 24 hours, then Ven 24 hrs
Experimental: Cell death/viability was assessed by Annexin V/DAPI flow cytometric staining.
To test the necessity for reduced heme synthesis for Ven sensitivity in t(11; 14) MM, Ven treated cells were supplemented with either the heme synthesis precursor 5-ALA or hemin (oxidized heme and active ingredient of clinically approved Panhematin™).

[2] = test system: venetoclax sensitive multiple myeloma MM; experiment: High dose ALA on venetoclax sensitive MM; type: cell-based
[3] = test system: VR non t(11; 14) MM cell lines; experiment: Growth/viability of VR non t(11;14) MM cell lines under iron chelation or supplementation; type: cell-based; conditions: iron chelation with DFO or iron supplementation
[4] = test system: VS t(11; 14) MM cell lines; experiment: Growth/viability of VS t(11;14) MM cell lines under iron chelation or supplementation (CellTiter-Glo 3D); type: cell-based; conditions: iron chelation with DFO or supplementation with FAC (500 μM FAC up to 96 h, FIG. 7A)
Experimental: Cells were treated with 500 μM FAC up to 96 h and assessed for viability using CellTiter-Glo® 3D Cell Viability Assay.
Iron is a cofactor for the maintenance of ETC activity. The impact of modulating iron levels either by chelation with deferoxamine (DFO) or supplementation with ferric ammonium citrate (FAC) was assessed in a panel of VS t(11; 14) and VR non t(11; 14) MM cell lines.

VS t(11; 14) cell lines = conditions: single agent; read-out: reported IC50 of venetoclax; cited from earlier work

NCC(=O)CCC(=O)O [5-ALA, aminolevulinic acid]
reversal (rescue) of Ven sensitivity [1]: did not rescue | reversal (rescue) of Ven sensitivity ([1]; listed as ALA): not | effect of high dose on venetoclax sensitive MM [2]: targets

CC(=O)N(O)CCCCCNC(=O)CCC(=O)N(O)CCCCCNC(=O)CCC(=O)N(O)CCCCCN [DFO, deferoxamine]
effect on growth/proliferation of VR cell lines [3]: growth inhibitory effects | effect on growth/proliferation of VS cell lines [4]: growth inhibitory effects

CC1(C)CCC(CN2CCN(c3ccc(C(=O)NS(=O)(=O)c4ccc(NCC5CCOCC5)c([N+](=O)[O-])c4)c(Oc4cnc5[nH]ccc5c4)c3)CC2)=C(c2ccc(Cl)cc2)C1 [venetoclax]
IC50 (VS t(11; 14) cell lines): ~100 nM
